Results published in PubChem BioAssay AID1347075 (National Center for Advancing Translational Sciences (NCATS), 2019).
Hit rate of the full screen: of about 400,000 compounds, about 5,500 (1.4%) were called active. The shares of active, inactive and inconclusive entries below differ from those in the screen. The call rests on the fitted dose curve; in most records, active means well fitted cell-killing curve with a large enough effect; inconclusive means small, poorly fitted or top-dose-only effect, or effect the other way; inactive means flat fitted curve, though single readings scatter. Potencies beside an inconclusive call are fits to weak or partial responses and may not hold up.

Experiment: qHTS assay for MDR1-selective chemotherapeutics: Primary screen using the parental adenocarcinoma cell KB-3-1; further: nearly all actives have a fitted effect of over 60% in size
Details: KB-3-1 viability, CellTiter-Glo ATP luminescence, 72 h; series mostly up to 46.1 µM
Summary of the method: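 Here the drug-naive KB-3-1 line serves as comparator for MDR sub-line selectivity; cells received compound titrations, 72 h at 37 °C, then CellTiter-Glo readout.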
Potency means the concentration at half of the fitted maximal effect.

SMILES	Potency
c1ccc(-c2cc3nc(NCc4cccs4)nc(NCc4ccc5occc5c4)c3s2)cc1	inconclusive: 29.1 µM [cytotoxic, single point]
Nc1ccc(Cl)cc1C(=O)c1ccc[nH]1	inactive
CC(C)c1ccccc1OCC(=O)Nc1ccc2[nH]ncc2c1	inconclusive: 23.1 µM [rising, partial curve, poor fit]
COc1ccc(NC(=O)c2cc(S(=O)(=O)N3CCc4ccccc43)cn2C)c(OC)c1	inconclusive: 20.6 µM [cytotoxic, single point]
Cc1cc(Cl)cc(Cl)c1OCCN1CCCC1	inconclusive: 0.116 µM [rising, full curve, poor fit]
COc1ccc(CC(=O)O/N=C(\N)c2ccc(Br)cc2)cc1OC	inconclusive: 18.4 µM [cytotoxic, partial curve]
Cc1cccc(CSc2nc3c(c(=O)[nH]2)C(c2cccc(O)c2)CC(=O)N3)c1 (stereo not drawn)	inconclusive: 14.6 µM [cytotoxic, partial curve, poor fit]
O=C(Nc1ccc(OC(F)F)c(Cl)c1)Nc1ccc2c(c1)OCO2	inconclusive: 29.1 µM [cytotoxic, single point]
CCc1cc(C(=O)N2CCN(c3ccccn3)CC2)sc1C	inactive
COCCNC(=O)Cc1c(C)c2c(cc(C)c3c(C(C)(C)C)coc32)oc1=O	inconclusive: 25.9 µM [cytotoxic, single point]
COc1ccc(OC)c(NC2=NC3(CCCCC3)N=C(N)N2)c1	inconclusive: 29.1 µM [cytotoxic, single point]
CCOC(=O)c1c(NC(=O)c2ccoc2C)sc(C)c1C	inconclusive: 29.1 µM [cytotoxic, single point]
COc1cccc(CN(C)C[C@@H]2OCc3ccccc3-c3c(n(C)c4ccccc34)C(=O)N([C@@H](C)CO)C[C@H]2C)c1	inconclusive: 3.66 µM [cytotoxic, full curve, poor fit]
CCCN(CCC)Cc1cc(=O)oc2ccc3ccccc3c12	inconclusive: 29.1 µM [cytotoxic, single point]
COc1ccc(OC)c(NC(=O)Nc2nnc([C@H]3C[C@H](O)[C@@H](CO)O3)s2)c1	inactive
COc1cc(CNCc2ccc(OC)c(OC)c2OC)cc(OC)c1	inactive
Cc1ccc(OCCn2c(=S)[nH]c3ccccc32)c(C(C)C)c1	active: 14.6 µM
CNC(=O)c1ccsc1NC(=O)C1CCN(S(=O)(=O)c2ccc(Cl)s2)CC1	inconclusive: 29.1 µM [cytotoxic, single point]
O=C1/C(=C/c2ccccc2)SC(=S)N1C1CCS(=O)(=O)C1 (stereo not drawn)	inconclusive: 20.6 µM [cytotoxic, single point]
O=C(CN1C(=O)C2CCCCC2C1=O)Nc1cccc([N+](=O)[O-])c1 (stereo not drawn)	inconclusive: 18.4 µM [cytotoxic, single point]
O=C(NCc1ccc(F)cc1)c1c(O)nc2ccccn2c1=O	inconclusive: 23.1 µM [cytotoxic, single point]
O=C(Nc1ccccc1)c1ccc(Br)c(S(=O)(=O)N2CCCCC2)c1	inconclusive: 29.1 µM [cytotoxic, single point]

Of the compounds above, three have a furan ring, fused or not:
SMILES	Potency
c1ccc(-c2cc3nc(NCc4cccs4)nc(NCc4ccc5occc5c4)c3s2)cc1	inconclusive: 29.1 µM [cytotoxic, single point]
COCCNC(=O)Cc1c(C)c2c(cc(C)c3c(C(C)(C)C)coc32)oc1=O	inconclusive: 25.9 µM [cytotoxic, single point]
CCOC(=O)c1c(NC(=O)c2ccoc2C)sc(C)c1C	inconclusive: 29.1 µM [cytotoxic, single point]

The list continues.

SMILES	Potency
COc1ccc(C(=O)N/N=C/c2ccc3cccc(OCc4ccccc4)c3n2)cc1	inconclusive: 29.1 µM [cytotoxic, single point]
Cc1cc(N/N=C/c2ccco2)c2ccccc2n1	inactive
COc1ccc(-c2ccc(C#N)c(SCC(=O)Nc3sc4c(c3C#N)CCC4)n2)cc1OC	inconclusive: 29.1 µM [cytotoxic, single point]
S=C(c1ccc(N2CCCC2)cc1)N1CCCCC1	inconclusive: 29.1 µM [cytotoxic, single point]
Cc1cc(O)c2c(c1O)C(=O)[C@]13C(=C2O)C(=O)[C@@H]2[C@@H](O)[C@H]1[C@@H]1[C@H](O)[C@H]3C(=O)C3=C(O)c4c(O)cc(C)c(O)c4C(=O)[C@]312	active: 1.16 µM
CCOC(=O)c1[nH]ncc1CN1CCCC(C(=O)c2cc(Cl)ccc2OC)C1 (stereo not drawn)	inactive
CCOC(=O)CN1C(=O)/C(=C/c2c(F)cccc2Cl)Oc2ccccc21	inconclusive: 29.1 µM [cytotoxic, single point]
CC(C)(C)n1nnnc1C(c1ccccc1OC(F)(F)F)N1CCN(C/C=C/c2ccccc2)CC1 (stereo not drawn)	inconclusive: 29.1 µM [cytotoxic, single point]
CCCc1cc(=O)[nH]c(SCCc2ccccc2)n1	inconclusive: 29.1 µM [cytotoxic, single point]
Cc1cc(/C=C2\SC(=S)NC2=O)c(C)[nH]1	inconclusive: 13 µM [cytotoxic, single point]
Cc1ccc2c(=O)cc(CSCC(=O)Nc3nnc(C)s3)[nH]c2c1	inconclusive: 16.4 µM [cytotoxic, partial curve, poor fit]
COc1ccc(Br)cc1C1Sc2ccccc2NC2=C1C(=O)c1ccccc12 (stereo not drawn)	inconclusive: 23.1 µM [cytotoxic, single point]
Cc1nc2ccc([N+](=O)[O-])cc2c(=O)n1Cc1ccc(Cl)cc1	inactive
COc1cccc(C(=O)/C=C2\Sc3ccccc3N2C)c1	inconclusive: 29.1 µM [rising, single point]
O=C(Nc1ccc(-c2nc3cc(Cl)ccc3o2)cc1)C1CCCO1 (stereo not drawn)	inactive
Cc1noc(C)c1CSc1nc2ccccc2c(=O)n1-c1ccccc1	active: 5.8 µM
CCS(=O)(=O)c1cc([N+](=O)[O-])c(Sc2ccccc2NC(C)=O)s1	inconclusive: 20.6 µM [cytotoxic, single point]
COc1ccc(NS(=O)(=O)c2ccc(NC(C)=O)cc2)cc1OC	active: 14.6 µM
CCC(O)CC(C(=O)NNc1ccccc1)C(=O)NNc1ccccc1 (stereo not drawn)	inconclusive: 29.1 µM [cytotoxic, single point]
CN(Cc1cccc(F)c1)C(=O)C1CC(=O)N(c2ccc3c(c2)OCCO3)C1 (stereo not drawn)	inactive
Cc1c(C(=S)Nc2ccccc2)cnn1-c1ccc([N+](=O)[O-])cc1	inconclusive: 16.4 µM [cytotoxic, single point]
